According to paper PMC5117210:
No constants are given. Whether binding was seen depends on the method and setting. Binding seen in cells or lysates may run through a third protein. A result given as binding can be weak or reduced; the word gives no strength. Tags and fused reporters may be left off the sequences shown.

Experiments:
[1] = target: T1, recombinant glutathione S-transferase (GST)-tagged Rnd3 (UniProt P61588); test: pull-down; GST or GST–Rnd3 on glutathione–Sepharose beads incubated 2 h at 4°C with lysates of transfected COS7 cells (1% Triton X-100, 20 mM Tris-HCl pH 8, 130 mM NaCl); immunoblotting; only the target purified
T1 sequence: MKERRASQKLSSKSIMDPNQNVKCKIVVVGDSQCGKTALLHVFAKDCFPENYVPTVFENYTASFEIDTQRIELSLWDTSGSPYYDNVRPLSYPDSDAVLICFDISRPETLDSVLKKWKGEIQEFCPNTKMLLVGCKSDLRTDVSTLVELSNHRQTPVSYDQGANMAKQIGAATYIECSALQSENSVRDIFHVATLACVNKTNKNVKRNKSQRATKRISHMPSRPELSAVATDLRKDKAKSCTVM

[2] = target: HA-tagged cytoplasmic region of plexin-B2 (plexin-B2-cyto) (human); test: co-IP; lysates of co-transfected COS7 cells (20 mM Tris-HCl pH 8, 130 mM NaCl, 1% Triton X-100); anti-FLAG or anti-HA antibody on agarose beads, 2 h at 4°C; immunoblotting

Question: Which binding [1] does the source give for “HA-tagged cytoplasmic region of plexin-B2 (plexin-B2-cyto) (human) (domain or fragment)” here?
Answer: binds

B1: FLAG–Rnd3 (protein, UniProt P61588 1-244)
chain: MKERRASQKLSSKSIMDPNQNVKCKIVVVGDSQCGKTALLHVFAKDCFPENYVPTVFENYTASFEIDTQRIELSLWDTSGSPYYDNVRPLSYPDSDAVLICFDISRPETLDSVLKKWKGEIQEFCPNTKMLLVGCKSDLRTDVSTLVELSNHRQTPVSYDQGANMAKQIGAATYIECSALQSENSVRDIFHVATLACVNKTNKNVKRNKSQRATKRISHMPSRPELSAVATDLRKDKAKSCTVM
Question: For B1, which binding [2] is on record?
Answer: binds

B2: FLAG–Rnd2 (protein, UniProt P52198 1-227)
chain: MEGQSGRCKIVVVGDAECGKTALLQVFAKDAYPGSYVPTVFENYTASFEIDKRRIELNMWDTSGSSYYDNVRPLAYPDSDAVLICFDISRPETLDSVLKKWQGETQEFCPNAKVVLVGCKLDMRTDLATLRELSKQRLIPVTHEQGTVLAKQVGAVSYVECSSRSSERSVRDVFHVATVASLGRGHRQLRRTDSRRGMQRSAQLSGRPDRGNEGEIHKDRAKSCNLM
Question: B2 was tested. Which binding [2] did it give?
Answer: binds

B3: FLAG–Rnd1 (protein, UniProt Q92730 1-232)
chain: MKERRAPQPVVARCKLVLVGDVQCGKTAMLQVLAKDCYPETYVPTVFENYTACLETEEQRVELSLWDTSGSPYYDNVRPLCYSDSDAVLLCFDISRPETVDSALKKWRTEILDYCPSTRVLLIGCKTDLRTDLSTLMELSHQKQAPISYEQGCAIAKQLGAEIYLEGSAFTSEKSIHSIFRTASMLCLNKPSPLPQKSPVRSLSKRLLHLPSRSELISSTFKKEKAKSCSIM
Question: B3 was tested. Which binding [2] did it give?
Answer: binds weakly

B4: FLAG–Rnd3ΔN (amino acids 16–244) (domain or fragment, UniProt P61588 16-244)
chain: MDPNQNVKCKIVVVGDSQCGKTALLHVFAKDCFPENYVPTVFENYTASFEIDTQRIELSLWDTSGSPYYDNVRPLSYPDSDAVLICFDISRPETLDSVLKKWKGEIQEFCPNTKMLLVGCKSDLRTDVSTLVELSNHRQTPVSYDQGANMAKQIGAATYIECSALQSENSVRDIFHVATLACVNKTNKNVKRNKSQRATKRISHMPSRPELSAVATDLRKDKAKSCTVM
Question: How did the binding [2] turn out when B4 was run?
Answer: binds

B5: FLAG–Rnd3ΔC (amino acids 1–200) (domain or fragment, UniProt P61588 1-200)
chain: MKERRASQKLSSKSIMDPNQNVKCKIVVVGDSQCGKTALLHVFAKDCFPENYVPTVFENYTASFEIDTQRIELSLWDTSGSPYYDNVRPLSYPDSDAVLICFDISRPETLDSVLKKWKGEIQEFCPNTKMLLVGCKSDLRTDVSTLVELSNHRQTPVSYDQGANMAKQIGAATYIECSALQSENSVRDIFHVATLACVNK
Question: How did the binding [2] turn out when B5 was run?
Answer: no binding

B6: FLAG–Rnd3-V56Y (protein, UniProt P61588 1-244)
chain: MKERRASQKLSSKSIMDPNQNVKCKIVVVGDSQCGKTALLHVFAKDCFPENYVPTYFENYTASFEIDTQRIELSLWDTSGSPYYDNVRPLSYPDSDAVLICFDISRPETLDSVLKKWKGEIQEFCPNTKMLLVGCKSDLRTDVSTLVELSNHRQTPVSYDQGANMAKQIGAATYIECSALQSENSVRDIFHVATLACVNKTNKNVKRNKSQRATKRISHMPSRPELSAVATDLRKDKAKSCTVM
Question: For B6, which binding [2] is on record?
Answer: no binding

B7: FLAG–Rnd3-V87R (protein, UniProt P61588 1-244)
chain: MKERRASQKLSSKSIMDPNQNVKCKIVVVGDSQCGKTALLHVFAKDCFPENYVPTVFENYTASFEIDTQRIELSLWDTSGSPYYDNRRPLSYPDSDAVLICFDISRPETLDSVLKKWKGEIQEFCPNTKMLLVGCKSDLRTDVSTLVELSNHRQTPVSYDQGANMAKQIGAATYIECSALQSENSVRDIFHVATLACVNKTNKNVKRNKSQRATKRISHMPSRPELSAVATDLRKDKAKSCTVM
Question: B7 was tested. Which binding [2] did it give?
Answer: no binding
